Results reported in patent US20180155434A1 (UNIVERSITY OF TOYAMA, published 2018).
These are yes or no findings as the source states them, for the method shown. Some binding calls cover weakened binding; strength is not graded here. Values belong to the binder of their own block, whether it stands above or below them.

Columns and labels:
[1] = target: T1, mouse IL-5Rα on Y16 cells (mouse, UniProt P21183 18-415); test: flow cytometry on Y16 cells
T1 construct: whole, on cells; also called IL-5Rα chain; mouse IL-5Rα-expressing cell Y16
T1 sequence (looked up): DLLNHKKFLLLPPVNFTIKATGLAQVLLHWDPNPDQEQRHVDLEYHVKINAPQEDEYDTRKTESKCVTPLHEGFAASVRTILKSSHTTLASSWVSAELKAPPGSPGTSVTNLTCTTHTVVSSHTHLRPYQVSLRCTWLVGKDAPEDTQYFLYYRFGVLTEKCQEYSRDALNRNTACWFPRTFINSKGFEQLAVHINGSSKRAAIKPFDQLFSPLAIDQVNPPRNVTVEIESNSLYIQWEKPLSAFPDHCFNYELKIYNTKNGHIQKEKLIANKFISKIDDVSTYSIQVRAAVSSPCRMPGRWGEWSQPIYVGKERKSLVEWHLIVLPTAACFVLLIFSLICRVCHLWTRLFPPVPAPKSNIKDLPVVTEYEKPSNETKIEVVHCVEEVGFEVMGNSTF

[2] = target: T1, mouse IL-5Rα on Y16 cells; test: flow cytometry on Y16 cells expressing mouse IL-5R, detection with goat F(ab')2 anti-human IgG PE, Geomean
Procedure: The chimeric antibodies prepared in Example 8 were evaluated for their antigen binding activity using a mouse-derived cell line Y16 expressing IL-5R. The Y16 cells were washed with SM (staining medium containing 2% FCS, 0.05% NaN₃, and 1 mM EDTA in PBS). Then, Mouse BD Fc Block (manufactured by Becton, Dickinson and Company) was added thereto at a concentration of 5 μg/mL, and the mixture was left standing at 4° C. for 30 min. The cells were inoculated at a cell number of 1×10⁵ cells/well to a 96-well U-bottom plate, and each chimeric antibody adjusted to a final concentration of 10000, 2500, 625, 156, 39, 10, 2.4, or 0.6 ng/mL was added thereto, followed by reaction at 4° C. for 60 min. The rat/human chimeric control antibodies used were rtDNP-1 hIgG1 (DF) antibody (KM8808) and rtDNP-1 hIgG1 (N297A) antibody (KM6161). The nucleotide sequences and amino acid sequences of the variable regions of each isotype control antibody are shown in SEQ ID NOs: 29 to 34. […] Fluorescence intensity was measured by FCM (flow cytometer FACS Canto II (manufactured by Becton, Dickinson and Company)). The data was analyzed using FlowJo 7.65 (manufactured by Tomy Digital Biology Co., Ltd.) to calculate a Geomean value at each concentration.

binding [1]: binds
binding [2]: binds
B1: H7 hIgG1 (DF) (H7-1) (antibody, V domains shown)
VH: EVQLQQSGAELGKPGTSVKLSCKVSGYNIKNTYIHWVNQRPGKGLEWIGRIDPANGNPIYAEKFKNKATLTADTSSNTAYMQLSQLKSDDTAIYFCAMHRGHSMGPGPYVMDAWGQGASVTVSS
VL: DIQMTQSPASLSASLGETVTIECRTSEDIYNGLAWYQQKPGKSPQLLIYNANSLHTGVPSRFSGSGSGTQYSLKINSLQSEDVASYCCQQYSNYPFTFGSGTKLEIK
notes: also called core fucose-deficient H7 chimeric antibody; Potelligent-type H7 chimeric antibody

binding [1]: binds
binding [2]: binds
B2: H7 hIgG1 (N297A) (H7-3) (antibody, V domains shown)
VH: B1 VH
VL: B1 VL
notes: Rat H7 variable regions on a human IgG1 constant region with N297A (EU index), so it lacks the N-linked sugar chain; Human kappa light chain constant region; also called N-linked sugar chain-deficient H7 chimeric antibody
